Measurements: publication PMC12579238
These are yes or no findings as the source states them, for the method shown. In cells and extracts the contact can be indirect. Here binding means that the protein was enriched with, or labelled near, the bait; the list need not be complete.

B1: TSC1 (protein, UniProt Q92574 1-1164)
chain: MAQQANVGELLAMLDSPMLGVRDDVTAVFKENLNSDRGPMLVNTLVDYYLETSSQPALHILTTLQEPHDKHLLDRINEYVGKAATRLSILSLLGHVIRLQPSWKHKLSQAPLLPSLLKCLKMDTDVVVLTTGVLVLITMLPMIPQSGKQHLLDFFDIFGRLSSWCLKKPGHVAEVYLVHLHASVYALFHRLYGMYPCNFVSFLRSHYSMKENLETFEEVVKPMMEHVRIHPELVTGSKDHELDPRRWKRLETHDVVIECAKISLDPTEASYEDGYSVSHQISARFPHRSADVTTSPYADTQNSYGCATSTPYSTSRLMLLNMPGQLPQTLSSPSTRLITEPPQATLWSPSMVCGMTTPPTSPGNVPPDLSHPYSKVFGTTAGGKGTPLGTPATSPPPAPLCHSDDYVHISLPQATVTPPRKEERMDSARPCLHRQHHLLNDRGSEEPPGSKGSVTLSDLPGFLGDLASEEDSIEKDKEEAAISRELSEITTAEAEPVVPRGGFDSPFYRDSLPGSQRKTHSAASSSQGASVNPEPLHSSLDKLGPDTPKQAFTPIDLPCGSADESPAGDRECQTSLETSIFTPSPCKIPPPTRVGFGSGQPPPYDHLFEVALPKTAHHFVIRKTEELLKKAKGNTEEDGVPSTSPMEVLDRLIQQGADAHSKELNKLPLPSKSVDWTHFGGSPPSDEIRTLRDQLLLLHNQLLYERFKRQQHALRNRRLLRKVIKAAALEEHNAAMKDQLKLQEKDIQMWKVSLQKEQARYNQLQEQRDTMVTKLHSQIRQLQHDREEFYNQSQELQTKLEDCRNMIAELRIELKKANNKVCHTELLLSQVSQKLSNSESVQQQMEFLNRQLLVLGEVNELYLEQLQNKHSDTTKEVEMMKAAYRKELEKNRSHVLQQTQRLDTSQKRILELESHLAKKDHLLLEQKKYLEDVKLQARGQLQAAESRYEAQKRITQVFELEILDLYGRLEKDGLLKKLEEEKAEAAEAAEERLDCCNDGCSDSMVGHNEEASGHNGETKTPRPSSARGSSGSRGGGGSSSSSSELSTPEKPPHQRAGPFSSRWETTMGEASASIPTTVGSLPSSKSFLGMKARELFRNKSESQCDEDGMTSSLSESLKTELGKDLGVEAKIPLNLDGPHPSPPTPDSVGQLHIMDYNETHHEHS
B2: CAMK4 (protein, UniProt Q16566 1-473)
chain: MLKVTVPSCSASSCSSVTASAAPGTASLVPDYWIDGSNRDALSDFFEVESELGRGATSIVYRCKQKGTQKPYALKVLKKTVDKKIVRTEIGVLLRLSHPNIIKLKEIFETPTEISLVLELVTGGELFDRIVEKGYYSERDAADAVKQILEAVAYLHENGIVHRDLKPENLLYATPAPDAPLKIADFGLSKIVEHQVLMKTVCGTPGYCAPEILRGCAYGPEVDMWSVGIITYILLCGFEPFYDERGDQFMFRRILNCEYYFISPWWDEVSLNAKDLVRKLIVLDPKKRLTTFQALQHPWVTGKAANFVHMDTAQKKLQEFNARRKLKAAVKAVVASSRLGSASSSHGSIQESHKASRDPSPIQDGNEDMKAIPEGEKIQGDGAQAAVKGAQAELMKVQALEKVKGADINAEEAPKMVPKAVEDGIKVADLELEEGLAEEKLKTVEEAAAPREGQGSSAVGFEVPQQDVILPEY
B3: TSR1 (protein, UniProt Q2NL82 1-804)
chain: MAAHRPGPLKQQNKAHKGGRHRGRGSAQRDGKGRLALKTLSKKVRKELSRVDQRHRASQLRKQKKEAVLAEKRQLGGKDGPPHQVLVVPLHSRISLPEAMQLLQDRDTGTVHLNELGNTQNFMLLCPRLKHRWFFTSARPGDLHVVLDMAKVADTILFLLDPLEGWDSTGDYCLSCLFAQGLPTYTLAVQGISGLPLKKQIDTRKKLSKAVEKRFPHDKLLLLDTQQEAGMLLRQLANQKQQHLAFRDRRAYLFAHAVDFVPSEENNLVGTLKISGYVRGQTLNVNRLLHIVGYGDFQMKQIDAPGDPFPLNPRGIKPQKDPDMAMEICATDAVDDMEEGLKVLMKADPGRQESLQAEVIPDPMEGEQTWPTEEELSEAKDFLKESSKVVKKVPKGTSSYQAEWILDGGSQSGGEGDEYEYDDMEHEDFMEEESQDESSEEEEEYETMTIGESVHDDLYDKKVDEEAEAKMLEKYKQERLEEMFPDEVDTPRDVAARIRFQKYRGLKSFRTSPWDPKENLPQDYARIFQFQNFTNTRKSIFKEVEEKEVEGAEVGWYVTLHVSEVPVSVVECFRQGTPLIAFSLLPHEQKMSVLNMVVRRDPGNTEPVKAKEELIFHCGFRRFRASPLFSQHTAADKHKLQRFLTADMALVATVYAPITFPPASVLLFKQKSNGMHSLIATGHLMSVDPDRMVIKRVVLSGHPFKIFTKMAVVRYMFFNREDVLWFKPVELRTKWGRRGHIKEPLGTHGHMKCSFDGKLKSQDTVLMNLYKRVFPKWTYDPYVPEPVPWLKSEISSTVPQGGME
B4: USP39 (protein, UniProt Q53GS9 1-565)
chain: MSGRSKRESRGSTRGKRESESRGSSGRVKRERDREREPEAASSRGSPVRVKREFEPASAREAPASVVPFVRVKREREVDEDSEPEREVRAKNGRVDSEDRRSRHCPYLDTINRSVLDFDFEKLCSISLSHINAYACLVCGKYFQGRGLKSHAYIHSVQFSHHVFLNLHTLKFYCLPDNYEIIDSSLEDITYVLKPTFTKQQIANLDKQAKLSRAYDGTTYLPGIVGLNNIKANDYANAVLQALSNVPPLRNYFLEEDNYKNIKRPPGDIMFLLVQRFGELMRKLWNPRNFKAHVSPHEMLQAVVLCSKKTFQITKQGDGVDFLSWFLNALHSALGGTKKKKKTIVTDVFQGSMRIFTKKLPHPDLPAEEKEQLLHNDEYQETMVESTFMYLTLDLPTAPLYKDEKEQLIIPQVPLFNILAKFNGITEKEYKTYKENFLKRFQLTKLPPYLIFCIKRFTKNNFFVEKNPTIVNFPITNVDLREYLSEEVQAVHKNTTYDLIANIVHDGKPSEGSYRIHVLHHGTGKWYELQDLQVTDILPQMITLSEAYIQIWKRRDNDETNQQGA
B5: UTP18 (protein, UniProt Q9Y5J1 1-556)
chain: MPPERRRRMKLDRRTGAKPKRKPGMRPDWKAGAGPGGPPQKPAPSSQRKPPARPSAAAAAIAVAAAEEERRLRQRNRLRLEEDKPAVERCLEELVFGDVENDEDALLRRLRGPRVQEHEDSGDSEVENEAKGNFPPQKKPVWVDEEDEDEEMVDMMNNRFRKDMMKNASESKLSKDNLKKRLKEEFQHAMGGVPAWAETTKRKTSSDDESEEDEDDLLQRTGNFISTSTSLPRGILKMKNCQHANAERPTVARISSVQFHPGAQIVMVAGLDNAVSLFQVDGKTNPKIQSIYLERFPIFKACFSANGEEVLATSTHSKVLYVYDMLAGKLIPVHQVRGLKEKIVRSFEVSPDGSFLLINGIAGYLHLLAMKTKELIGSMKINGRVAASTFSSDSKKVYASSGDGEVYVWDVNSRKCLNRFVDEGSLYGLSIATSRNGQYVACGSNCGVVNIYNQDSCLQETNPKPIKAIMNLVTGVTSLTFNPTTEILAIASEKMKEAVRLVHLPSCTVFSNFPVIKNKNISHVHTMDFSPRSGYFALGNEKGKALMYRLHHYSDF
B6: VPS16 (protein, UniProt Q9H269 1-839)
chain: MDCYTANWNPLGDSAFYRKYELYSMDWDLKEELRDCLVAAAPYGGPIALLRNPWRKEKAASVRPVLDIYSASGMPLASLLWKSGPVVSLGWSAEEELLCVQEDGAVLVYGLHGDFRRHFSMGNEVLQNRVLDARIFHTEFGSGVAILTGAHRFTLSANVGDLKLRRMPEVPGLQSAPSCWTVLCQDRVAHILLAVGPDLYLLDHAACSAVTPPGLAPGVSSFLQMAVSFTYRHLALFTDTGYIWMGTASLKEKLCEFNCNIRAPPKQMVWCSRPRSKERAVVVAWERRLMVVGDAPESIQFVLDEDSYLVPELDGVRIFSRSTHEFLHEVPAASEEIFKIASMAPGALLLEAQKEYEKESQKADEYLREIQELGQLTQAVQQCIEAAGHEHQPDMQKSLLRAASFGKCFLDRFPPDSFVHMCQDLRVLNAVRDYHIGIPLTYSQYKQLTIQVLLDRLVLRRLYPLAIQICEYLRLPEVQGVSRILAHWACYKVQQKDVSDEDVARAINQKLGDTPGVSYSDIAARAYGCGRTELAIKLLEYEPRSGEQVPLLLKMKRSKLALSKAIESGDTDLVFTVLLHLKNELNRGDFFMTLRNQPMALSLYRQFCKHQELETLKDLYNQDDNHQELGSFHIRASYAAEERIEGRVAALQTAADAFYKAKNEFAAKATEDQMRLLRLQRRLEDELGGQFLDLSLHDTVTTLILGGHNKRAEQLARDFRIPDKRLWWLKLTALADLEDWEELEKFSKSKKSPIGYLPFVEICMKQHNKYEAKKYASRVGPEQKVKALLLVGDVAQAADVAIEHRNEAELSLVLSHCTGATDGATADKIQRARAQAQKK
B7: VPS18 (protein, UniProt Q9P253 1-973)
chain: MASILDEYENSLSRSAVLQPGCPSVGIPHSGYVNAQLEKEVPIFTKQRIDFTPSERITSLVVSSNQLCMSLGKDTLLRIDLGKANEPNHVELGRKDDAKVHKMFLDHTGSHLLIALSSTEVLYVNRNGQKVRPLARWKGQLVESVGWNKALGTESSTGPILVGTAQGHIFEAELSASEGGLFGPAPDLYFRPLYVLNEEGGPAPVCSLEAERGPDGRSFVIATTRQRLFQFIGRAAEGAEAQGFSGLFAAYTDHPPPFREFPSNLGYSELAFYTPKLRSAPRAFAWMMGDGVLYGALDCGRPDSLLSEERVWEYPEGVGPGASPPLAIVLTQFHFLLLLADRVEAVCTLTGQVVLRDHFLEKFGPLKHMVKDSSTGQLWAYTERAVFRYHVQREARDVWRTYLDMNRFDLAKEYCRERPDCLDTVLAREADFCFRQRRYLESARCYALTQSYFEEIALKFLEARQEEALAEFLQRKLASLKPAERTQATLLTTWLTELYLSRLGALQGDPEALTLYRETKECFRTFLSSPRHKEWLFASRASIHELLASHGDTEHMVYFAVIMQDYERVVAYHCQHEAYEEALAVLARHRDPQLFYKFSPILIRHIPRQLVDAWIEMGSRLDARQLIPALVNYSQGGEVQQVSQAIRYMEFCVNVLGETEQAIHNYLLSLYARGRPDSLLAYLEQAGASPHRVHYDLKYALRLCAEHGHHRACVHVYKVLELYEEAVDLALQVDVDLAKQCADLPEEDEELRKKLWLKIARHVVQEEEDVQTAMACLASCPLLKIEDVLPFFPDFVTIDHFKEAICSSLKAYNHHIQELQREMEEATASAQRIRRDLQELRGRYGTVEPQDKCATCDFPLLNRPFYLFLCGHMFHADCLLQAVRPGLPAYKQARLEELQRKLGAAPPPAKGSARAKEAEGGAATAGPSREQLKADLDELVAAECVYCGELMIRSIDRPFIDPQRYEEEQLSWL

Biological target: T1, CLN7 (human (endogenous in SH-SY5Y)) (UniProt Q8NHS3)
T1 sequence: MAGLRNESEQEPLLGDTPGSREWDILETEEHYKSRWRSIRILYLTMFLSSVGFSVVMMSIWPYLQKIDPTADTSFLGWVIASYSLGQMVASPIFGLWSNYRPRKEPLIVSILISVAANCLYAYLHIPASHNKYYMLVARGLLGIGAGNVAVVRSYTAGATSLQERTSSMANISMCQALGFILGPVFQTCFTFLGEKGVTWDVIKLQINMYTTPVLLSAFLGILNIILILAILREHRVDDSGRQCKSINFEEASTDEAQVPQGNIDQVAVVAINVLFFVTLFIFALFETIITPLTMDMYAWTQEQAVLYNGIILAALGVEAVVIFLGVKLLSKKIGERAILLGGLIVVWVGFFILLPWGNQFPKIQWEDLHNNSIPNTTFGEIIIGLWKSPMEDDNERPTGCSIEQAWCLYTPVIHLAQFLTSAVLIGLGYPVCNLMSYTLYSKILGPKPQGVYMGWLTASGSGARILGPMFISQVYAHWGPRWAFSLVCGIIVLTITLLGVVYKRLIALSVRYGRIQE
Test: affinity purification with mass spectrometry; endogenous CLN7 immunoprecipitated from 2.5 mg SH-SY5Y lysate with a polyclonal anti-CLN7 antibody raised against L9 (351-421aa, Proteintech) on G-sepharose beads; IgG as non-specific binding control; 4 independent replicates; cells under steady state culture conditions

Binder | binding
B1 | binds
B2 | binds
B3 | binds
B4 | binds
B5 | binds
B6 | binds
B7 | binds
